Measurements taken from PMC10654596.
Results are given in words; binding and its absence hold for the method and conditions named. Binding seen in cells or lysates may run through a third protein. Binding can be weak; no strength is given.

By UniProt entry, the sequences of proteins in these tests, tags left out.
UniProt Q09666: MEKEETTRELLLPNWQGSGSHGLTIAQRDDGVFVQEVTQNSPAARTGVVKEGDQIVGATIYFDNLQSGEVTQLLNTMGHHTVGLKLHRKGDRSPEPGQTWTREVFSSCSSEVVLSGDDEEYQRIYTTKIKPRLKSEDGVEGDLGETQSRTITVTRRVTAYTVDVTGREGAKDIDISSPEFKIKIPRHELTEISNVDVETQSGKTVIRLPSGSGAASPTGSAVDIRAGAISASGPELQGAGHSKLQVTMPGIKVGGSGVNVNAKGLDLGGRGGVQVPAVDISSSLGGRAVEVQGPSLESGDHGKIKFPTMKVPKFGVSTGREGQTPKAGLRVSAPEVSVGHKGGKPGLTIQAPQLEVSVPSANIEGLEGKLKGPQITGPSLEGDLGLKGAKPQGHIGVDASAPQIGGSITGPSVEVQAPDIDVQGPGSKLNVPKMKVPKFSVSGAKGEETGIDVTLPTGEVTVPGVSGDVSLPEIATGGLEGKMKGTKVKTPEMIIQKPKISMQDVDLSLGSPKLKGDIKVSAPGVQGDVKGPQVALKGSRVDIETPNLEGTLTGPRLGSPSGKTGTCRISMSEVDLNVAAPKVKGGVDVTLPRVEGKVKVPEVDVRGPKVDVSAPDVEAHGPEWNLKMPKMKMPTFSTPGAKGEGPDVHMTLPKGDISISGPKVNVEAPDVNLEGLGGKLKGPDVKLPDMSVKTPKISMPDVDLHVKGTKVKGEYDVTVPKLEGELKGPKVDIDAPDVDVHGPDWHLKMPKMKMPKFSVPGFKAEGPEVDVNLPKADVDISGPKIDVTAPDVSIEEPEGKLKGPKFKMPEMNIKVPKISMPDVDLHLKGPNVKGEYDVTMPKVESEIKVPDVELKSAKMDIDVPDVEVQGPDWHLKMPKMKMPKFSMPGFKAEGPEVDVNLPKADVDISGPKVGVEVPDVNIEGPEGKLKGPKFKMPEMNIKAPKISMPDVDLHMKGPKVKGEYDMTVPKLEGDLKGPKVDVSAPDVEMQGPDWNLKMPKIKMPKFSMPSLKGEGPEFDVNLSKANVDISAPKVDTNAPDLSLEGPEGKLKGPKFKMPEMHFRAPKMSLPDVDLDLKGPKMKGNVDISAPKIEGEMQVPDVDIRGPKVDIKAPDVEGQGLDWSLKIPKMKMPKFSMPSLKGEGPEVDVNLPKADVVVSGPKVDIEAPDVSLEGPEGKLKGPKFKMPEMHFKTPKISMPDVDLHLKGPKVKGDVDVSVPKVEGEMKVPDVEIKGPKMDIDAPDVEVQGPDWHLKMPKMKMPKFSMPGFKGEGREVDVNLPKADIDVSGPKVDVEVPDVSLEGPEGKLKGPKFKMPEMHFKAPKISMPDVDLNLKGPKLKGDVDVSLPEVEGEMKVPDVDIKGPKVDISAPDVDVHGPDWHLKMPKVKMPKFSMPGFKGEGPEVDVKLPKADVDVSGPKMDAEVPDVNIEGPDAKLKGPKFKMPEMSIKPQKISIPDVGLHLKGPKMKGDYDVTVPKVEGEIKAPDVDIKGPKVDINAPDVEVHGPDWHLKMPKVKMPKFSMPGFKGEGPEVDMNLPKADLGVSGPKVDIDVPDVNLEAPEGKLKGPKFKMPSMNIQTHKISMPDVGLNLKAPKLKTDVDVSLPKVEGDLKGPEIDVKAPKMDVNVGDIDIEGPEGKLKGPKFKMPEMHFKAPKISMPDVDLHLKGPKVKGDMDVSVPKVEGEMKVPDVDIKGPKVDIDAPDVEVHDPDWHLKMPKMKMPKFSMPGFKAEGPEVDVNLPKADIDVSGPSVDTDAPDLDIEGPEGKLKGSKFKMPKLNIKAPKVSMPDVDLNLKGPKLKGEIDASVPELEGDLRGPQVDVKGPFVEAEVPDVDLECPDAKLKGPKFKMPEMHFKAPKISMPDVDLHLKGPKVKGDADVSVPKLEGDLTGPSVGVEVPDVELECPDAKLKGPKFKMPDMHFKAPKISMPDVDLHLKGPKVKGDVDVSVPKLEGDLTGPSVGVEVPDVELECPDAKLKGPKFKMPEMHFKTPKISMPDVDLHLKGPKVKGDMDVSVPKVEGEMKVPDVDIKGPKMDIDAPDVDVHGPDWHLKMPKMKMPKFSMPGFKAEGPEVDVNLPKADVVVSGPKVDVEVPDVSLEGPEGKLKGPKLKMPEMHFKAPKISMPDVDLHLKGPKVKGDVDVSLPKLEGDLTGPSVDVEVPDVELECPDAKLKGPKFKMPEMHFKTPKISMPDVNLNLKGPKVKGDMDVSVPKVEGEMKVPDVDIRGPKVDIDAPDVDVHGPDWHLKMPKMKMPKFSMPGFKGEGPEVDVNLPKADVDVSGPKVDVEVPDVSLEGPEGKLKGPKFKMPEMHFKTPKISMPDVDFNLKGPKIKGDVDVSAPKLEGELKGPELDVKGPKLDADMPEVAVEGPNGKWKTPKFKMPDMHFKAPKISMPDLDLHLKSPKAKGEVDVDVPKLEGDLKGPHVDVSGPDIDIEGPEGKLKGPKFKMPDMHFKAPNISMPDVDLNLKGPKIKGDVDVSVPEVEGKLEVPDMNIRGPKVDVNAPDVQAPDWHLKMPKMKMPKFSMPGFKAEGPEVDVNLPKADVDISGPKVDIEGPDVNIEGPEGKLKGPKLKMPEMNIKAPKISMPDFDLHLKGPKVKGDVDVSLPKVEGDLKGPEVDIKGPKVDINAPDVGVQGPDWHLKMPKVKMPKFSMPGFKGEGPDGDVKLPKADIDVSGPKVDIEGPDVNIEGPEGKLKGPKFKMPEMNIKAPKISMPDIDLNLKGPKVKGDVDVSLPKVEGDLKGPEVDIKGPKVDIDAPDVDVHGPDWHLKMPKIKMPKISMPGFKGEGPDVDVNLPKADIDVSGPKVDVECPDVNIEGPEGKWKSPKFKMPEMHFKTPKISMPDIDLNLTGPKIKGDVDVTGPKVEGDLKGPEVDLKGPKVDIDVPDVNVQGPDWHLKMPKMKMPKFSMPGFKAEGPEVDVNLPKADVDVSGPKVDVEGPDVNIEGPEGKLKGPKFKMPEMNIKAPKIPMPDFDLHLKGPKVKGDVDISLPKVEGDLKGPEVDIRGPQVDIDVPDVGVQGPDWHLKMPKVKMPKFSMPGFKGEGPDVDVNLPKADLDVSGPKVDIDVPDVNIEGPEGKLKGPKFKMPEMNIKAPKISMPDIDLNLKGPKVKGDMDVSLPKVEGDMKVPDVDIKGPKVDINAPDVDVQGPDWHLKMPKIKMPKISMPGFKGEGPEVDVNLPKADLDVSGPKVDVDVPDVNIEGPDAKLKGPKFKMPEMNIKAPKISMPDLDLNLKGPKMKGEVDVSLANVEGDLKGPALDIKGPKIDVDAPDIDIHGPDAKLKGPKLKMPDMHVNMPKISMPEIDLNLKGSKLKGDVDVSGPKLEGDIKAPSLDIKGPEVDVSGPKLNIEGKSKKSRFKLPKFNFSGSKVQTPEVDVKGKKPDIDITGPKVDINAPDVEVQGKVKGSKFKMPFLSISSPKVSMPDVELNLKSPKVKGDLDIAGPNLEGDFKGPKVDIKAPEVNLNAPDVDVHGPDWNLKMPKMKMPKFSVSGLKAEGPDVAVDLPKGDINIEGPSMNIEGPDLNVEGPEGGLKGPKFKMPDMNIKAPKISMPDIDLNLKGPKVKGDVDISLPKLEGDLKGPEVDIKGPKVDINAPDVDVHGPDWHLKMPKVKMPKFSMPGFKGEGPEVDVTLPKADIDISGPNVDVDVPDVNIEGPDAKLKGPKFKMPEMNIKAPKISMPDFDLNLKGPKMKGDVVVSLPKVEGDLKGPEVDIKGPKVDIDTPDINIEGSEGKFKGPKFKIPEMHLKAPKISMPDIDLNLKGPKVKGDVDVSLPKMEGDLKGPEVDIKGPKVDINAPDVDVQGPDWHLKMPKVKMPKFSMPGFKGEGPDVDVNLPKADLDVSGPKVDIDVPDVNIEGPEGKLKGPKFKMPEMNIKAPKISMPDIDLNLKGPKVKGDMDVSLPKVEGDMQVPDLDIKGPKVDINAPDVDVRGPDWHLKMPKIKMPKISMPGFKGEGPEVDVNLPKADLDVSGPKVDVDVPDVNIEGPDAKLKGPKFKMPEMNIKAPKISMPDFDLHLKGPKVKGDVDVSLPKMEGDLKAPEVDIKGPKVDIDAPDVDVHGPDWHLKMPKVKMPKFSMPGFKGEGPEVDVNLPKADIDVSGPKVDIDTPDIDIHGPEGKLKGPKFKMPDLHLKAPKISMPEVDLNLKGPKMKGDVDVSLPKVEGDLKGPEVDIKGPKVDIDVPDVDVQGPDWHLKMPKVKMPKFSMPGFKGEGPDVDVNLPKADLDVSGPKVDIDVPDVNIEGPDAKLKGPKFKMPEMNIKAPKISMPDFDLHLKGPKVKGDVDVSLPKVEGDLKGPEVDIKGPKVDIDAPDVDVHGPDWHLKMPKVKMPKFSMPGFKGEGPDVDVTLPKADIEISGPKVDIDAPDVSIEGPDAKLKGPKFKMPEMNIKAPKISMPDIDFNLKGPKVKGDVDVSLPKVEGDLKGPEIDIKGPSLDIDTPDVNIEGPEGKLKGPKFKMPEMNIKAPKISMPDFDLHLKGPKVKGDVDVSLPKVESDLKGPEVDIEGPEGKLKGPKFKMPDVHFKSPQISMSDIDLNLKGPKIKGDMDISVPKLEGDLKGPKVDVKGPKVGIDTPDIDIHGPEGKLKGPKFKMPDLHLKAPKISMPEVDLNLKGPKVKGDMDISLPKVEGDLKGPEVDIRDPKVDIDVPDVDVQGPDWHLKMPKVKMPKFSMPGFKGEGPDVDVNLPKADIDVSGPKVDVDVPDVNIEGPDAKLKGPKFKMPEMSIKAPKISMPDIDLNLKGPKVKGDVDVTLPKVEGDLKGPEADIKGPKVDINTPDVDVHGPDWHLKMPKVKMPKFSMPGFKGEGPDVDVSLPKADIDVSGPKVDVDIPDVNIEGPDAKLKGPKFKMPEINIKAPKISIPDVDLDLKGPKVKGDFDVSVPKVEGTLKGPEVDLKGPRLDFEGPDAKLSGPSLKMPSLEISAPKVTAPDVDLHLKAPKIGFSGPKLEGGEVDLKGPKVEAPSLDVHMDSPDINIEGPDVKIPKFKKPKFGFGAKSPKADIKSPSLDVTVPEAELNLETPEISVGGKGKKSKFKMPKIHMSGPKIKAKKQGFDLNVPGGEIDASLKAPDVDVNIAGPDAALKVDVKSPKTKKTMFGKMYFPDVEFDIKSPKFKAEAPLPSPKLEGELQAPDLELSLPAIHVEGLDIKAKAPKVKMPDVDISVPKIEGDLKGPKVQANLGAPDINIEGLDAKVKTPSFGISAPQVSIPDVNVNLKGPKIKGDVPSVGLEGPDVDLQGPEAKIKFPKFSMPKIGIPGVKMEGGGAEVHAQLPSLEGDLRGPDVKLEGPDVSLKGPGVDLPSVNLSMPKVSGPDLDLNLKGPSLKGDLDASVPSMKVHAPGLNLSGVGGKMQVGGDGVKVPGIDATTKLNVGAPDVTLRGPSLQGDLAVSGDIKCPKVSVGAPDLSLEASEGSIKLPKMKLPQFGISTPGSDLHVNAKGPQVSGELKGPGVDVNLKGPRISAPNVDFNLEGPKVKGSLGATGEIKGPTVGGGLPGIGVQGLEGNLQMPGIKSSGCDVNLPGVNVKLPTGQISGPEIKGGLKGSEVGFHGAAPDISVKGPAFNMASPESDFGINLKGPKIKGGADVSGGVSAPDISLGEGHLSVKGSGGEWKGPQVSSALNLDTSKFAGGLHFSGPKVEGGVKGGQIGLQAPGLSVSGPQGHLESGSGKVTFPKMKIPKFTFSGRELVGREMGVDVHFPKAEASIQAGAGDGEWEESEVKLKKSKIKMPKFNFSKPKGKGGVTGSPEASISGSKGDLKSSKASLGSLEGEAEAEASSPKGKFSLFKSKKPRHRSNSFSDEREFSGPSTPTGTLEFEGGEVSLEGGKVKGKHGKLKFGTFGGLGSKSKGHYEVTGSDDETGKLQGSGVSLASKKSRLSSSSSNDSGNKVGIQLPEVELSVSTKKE
UniProt P17661: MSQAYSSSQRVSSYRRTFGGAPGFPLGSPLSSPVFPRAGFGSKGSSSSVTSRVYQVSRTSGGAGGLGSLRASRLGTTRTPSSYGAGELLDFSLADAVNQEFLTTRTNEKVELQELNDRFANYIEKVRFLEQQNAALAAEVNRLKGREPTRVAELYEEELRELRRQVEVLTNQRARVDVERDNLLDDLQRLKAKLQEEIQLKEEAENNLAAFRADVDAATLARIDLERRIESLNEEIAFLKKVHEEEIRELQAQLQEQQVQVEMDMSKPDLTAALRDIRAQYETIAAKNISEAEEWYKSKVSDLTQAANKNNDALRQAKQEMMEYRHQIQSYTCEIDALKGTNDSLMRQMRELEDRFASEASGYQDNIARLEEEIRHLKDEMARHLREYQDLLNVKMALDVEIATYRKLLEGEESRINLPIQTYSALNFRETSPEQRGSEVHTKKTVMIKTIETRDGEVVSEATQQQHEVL

B1: crystallin alpha B (CRYAB) (protein, UniProt P02511 1-175)
chain: MDIAIHHPWIRRPFFPFHSPSRLFDQFFGEHLLESDLFPTSTSLSPFYLRPPSFLRAPSWFDTGLSEMRLEKDRFSVNLDVKHFSPEELKVKVLGDVIEVHGKHEERQDEHGFISREFHRKYRIPADVDPLTITSSLSSDGVLTVNGPRKQVSGPERTIPITREEKPAVTAAPKK

Biological target: Δ3–9 dystrophin (internally truncated dystrophin, in-frame deletion of DMD exons 3–9) (human (endogenous in hiPSC-CMs)) (UniProt P11532)
Experiment: co-IP; mouse anti-human dystrophin antibody (sc-73592) coupled to Dynabeads M-270 epoxy; lysate of day 48 hiPSC-CMs in extraction buffer (25 mM NaCl), overnight at 4°C; western blot of the IP samples, signal intensity ratio of each protein to dystrophin

Molecule | binding
AHNAK1 (from UniProt Q09666 1-5890) | binds
Cypher (from UniProt O75112 1-727) | no binding
cardiac troponin T (cTnT) (from UniProt P45379 1-298) | binds
desmin (from UniProt P17661 1-470) | binds
B1 | no binding
